# Some of the results follow.
# B1: SRS6 (Toxoplasma gondii), Q9NH12 (protein)
# chain: MARTGSMQQRRGGFQTTARMLMAVCVSGVLLLSSGPSSANKLTEGQQNQNSGPGAATQEGPTIEGAVAKCVLKTTAAENGSSRAKNTTGLTLSKENLVVSLQCSGEKNAIVPKDQKKVCSAAPNAKVADCKGADTDKQVTLKSLLGTSGDIQWEKTIVSTDNKGEVMTLKIKESELPLFDKAFFVGCEEDKAQTRTSQATECKVNVSVKARPSTVGENNVVTCAYGKDSNPRPLEVEMSADNDTLTIDCGTDGSLKPTKYTEEFCVTDNSQLESCTTKKFSEILPTFLPSWWVSDSQNGSAKLTIPESGFPEEQQQFRLGCVPKKTTQSPQANPSVKTEKEEGAQNTDASTSNCSVIVTVKASNFSSLASSIAPTAAVAGGAAALTGFLVGSF
# What was measured:
# Assay in all cases: glycan array binding signal (z-score within array); higher = stronger binding
# Conditions in all cases: glycan notation: IUPAC condensed, linker removed
# Gal6S(b1-4)Glc = target: Gal6S(b1-4)Glc
# In short: (§1)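 The binding signal is a Z-score computed within each array and averaged over linkers. Arrays of the same protein sequence at different concentrations or buffers were also averaged together. Data originate from 3228 arrays in the Consortium for Functional Glycomics database, kept only where the protein sequence was available.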
# Gal6S(b1-4)Glc6S = target: Gal6S(b1-4)Glc6S
# In short: as §1
# Gal6S(b1-4)GlcNAc = target: Gal6S(b1-4)GlcNAc
# In short: as §1
# Gal6S(b1-4)GlcNAc6S = target: Gal6S(b1-4)GlcNAc6S
# In short: as §1
# GalNAc(a1-3)Gal = target: GalNAc(a1-3)Gal
# In short: as §1
# GalNAc(a1-3)GalNAc = target: GalNAc(a1-3)GalNAc
# In short: as §1
# [1] = target: GalNAc(a1-3)GalNAc(a1-3)Gal(a1-4)Gal(b1-4)GlcNAc
# In short: as §1
# GalNAc(b1-3)Gal = target: GalNAc(b1-3)Gal
# In short: as §1
# [2] = target: GalNAc(b1-3)Gal(a1-4)Gal(b1-4)GlcNAc
# In short: as §1
# [3] = target: GalNAc(b1-3)Gal(a1-4)Gal(b1-4)GlcNAc(b1-3)Gal(b1-4)Glc
# In short: as §1
# [4] = target: GalNAc(b1-3)Gal(a1-6)Gal(b1-4)Glc
# In short: as §1
# GalNAc(b1-3)GalNAc = target: GalNAc(b1-3)GalNAc
# In short: as §1
# GalNAc(b1-4)GlcNAc = target: GalNAc(b1-4)GlcNAc
# In short: as §1
# [5] = target: GalNAc(b1-4)GlcNAc(b1-2)Man(a1-3)[GalNAc(b1-4)GlcNAc(b1-2)Man(a1-6)]Man(b1-4)GlcNAc(b1-4)GlcNAc
# In short: as §1
# Glc(a1-4)Glc = target: Glc(a1-4)Glc
# In short: as §1
# Glc(a1-6)Glc(a1-6)Glc = target: Glc(a1-6)Glc(a1-6)Glc
# In short: as §1
# Glc(b1-4)Glc = target: Glc(b1-4)Glc
# In short: as §1
# Glc(b1-6)Glc = target: Glc(b1-6)Glc
# In short: as §1
# GlcA(b1-3)Gal = target: GlcA(b1-3)Gal
# In short: as §1
# GlcA(b1-3)GlcNAc = target: GlcA(b1-3)GlcNAc
# In short: as §1
# GlcA(b1-6)Gal = target: GlcA(b1-6)Gal
# In short: as §1
# [6] = target: GlcNAc(a1-3)Gal(b1-4)GlcNAc
# In short: as §1
# [7] = target: GlcNAc(a1-4)Gal(b1-3)GlcNAc
# In short: as §1
# [8] = target: GlcNAc(a1-4)Gal(b1-4)GalNAc
# In short: as §1
# [9] = target: GlcNAc(a1-4)Gal(b1-4)GlcNAc
# In short: as §1
# [10] = target: GlcNAc(a1-4)Gal(b1-4)GlcNAc(b1-3)Gal(b1-4)Glc
# In short: as §1
# [11] = target: GlcNAc(a1-4)Gal(b1-4)GlcNAc(b1-3)Gal(b1-4)GlcNAc
# In short: as §1
# [12] = target: GlcNAc(a1-4)Gal(b1-4)GlcNAc(b1-3)Gal(b1-4)GlcNAc(b1-3)Gal(b1-4)GlcNAc
# In short: as §1
# [13] = target: GlcNAc(a1-4)Gal(b1-4)GlcNAc(b1-3)Gal(b1-4)[Fuc(a1-3)]GlcNAc(b1-3)Gal(b1-4)[Fuc(a1-3)]GlcNAc
# In short: as §1
# [14] = target: GlcNAc(a1-6)Gal(b1-4)GlcNAc
# In short: as §1
# [15] = target: GlcNAc(b1-2)Gal(b1-3)GalNAc
# In short: as §1
# [16] = target: GlcNAc(b1-2)Man(a1-3)[GlcNAc(b1-2)Man(a1-6)]Man(b1-4)GlcNAc(b1-4)GlcNAc
# In short: as §1
# [17] = target: GlcNAc(b1-2)Man(a1-3)[GlcNAc(b1-2)Man(a1-6)]Man(b1-4)GlcNAc(b1-4)[Fuc(a1-6)]GlcNAc
# In short: as §1
# [18] = target: GlcNAc(b1-2)[GlcNAc(b1-4)]Man(a1-3)[GlcNAc(b1-2)Man(a1-6)]Man(b1-4)GlcNAc(b1-4)GlcNAc
# In short: as §1
# GlcNAc(b1-3)Gal = target: GlcNAc(b1-3)Gal
# In short: as §1
# [19] = target: GlcNAc(b1-3)Gal(b1-3)GalNAc
# In short: as §1
# GlcNAc(b1-3)Gal(b1-4)Glc = target: GlcNAc(b1-3)Gal(b1-4)Glc
# In short: as §1
# [20] = target: GlcNAc(b1-3)Gal(b1-4)GlcNAc
# In short: as §1
binder,measurement,setting,value
B1,glycan array binding signal (z-score),Gal6S(b1-4)Glc,-0.351
same,glycan array binding signal (z-score),Gal6S(b1-4)Glc6S,4.38
same,glycan array binding signal (z-score),Gal6S(b1-4)GlcNAc,0.098
same,glycan array binding signal (z-score),Gal6S(b1-4)GlcNAc6S,0.86
same,glycan array binding signal (z-score),GalNAc(a1-3)Gal,0.054
same,glycan array binding signal (z-score),GalNAc(a1-3)GalNAc,0.939
same,glycan array binding signal (z-score),[1],0.683
same,glycan array binding signal (z-score),GalNAc(b1-3)Gal,0.499
same,glycan array binding signal (z-score),[2],-0.316
same,glycan array binding signal (z-score),[3],-0.699
same,glycan array binding signal (z-score),[4],1.31
same,glycan array binding signal (z-score),GalNAc(b1-3)GalNAc,0.267
same,glycan array binding signal (z-score),GalNAc(b1-4)GlcNAc,-0.358
same,glycan array binding signal (z-score),[5],0.625
same,glycan array binding signal (z-score),Glc(a1-4)Glc,-0.129
same,glycan array binding signal (z-score),Glc(a1-6)Glc(a1-6)Glc,-0.454
same,glycan array binding signal (z-score),Glc(b1-4)Glc,-0.479
same,glycan array binding signal (z-score),Glc(b1-6)Glc,-0.615
same,glycan array binding signal (z-score),GlcA(b1-3)Gal,-0.167
same,glycan array binding signal (z-score),GlcA(b1-3)GlcNAc,-0.705
same,glycan array binding signal (z-score),GlcA(b1-6)Gal,-0.589
same,glycan array binding signal (z-score),[6],-1.13
same,glycan array binding signal (z-score),[7],1.16
same,glycan array binding signal (z-score),[8],0.375
same,glycan array binding signal (z-score),[9],-0.154
same,glycan array binding signal (z-score),[10],-0.512
same,glycan array binding signal (z-score),[11],0.319
same,glycan array binding signal (z-score),[12],-0.784
same,glycan array binding signal (z-score),[13],0.807
same,glycan array binding signal (z-score),[14],0.274
same,glycan array binding signal (z-score),[15],-0.053
same,glycan array binding signal (z-score),[16],-1.05
same,glycan array binding signal (z-score),[17],13.7
same,glycan array binding signal (z-score),[18],-0.165
same,glycan array binding signal (z-score),GlcNAc(b1-3)Gal,0.424
same,glycan array binding signal (z-score),[19],-0.739
same,glycan array binding signal (z-score),GlcNAc(b1-3)Gal(b1-4)Glc,-1.14
same,glycan array binding signal (z-score),[20],-0.665

# Part of the list above in a different format.
binder | measurement | setting | value
B1 | glycan array binding signal (z-score) | [1] | 0.683
same | glycan array binding signal (z-score) | Glc(a1-4)Glc | -0.129

# Reference: the supplement of paper PMC8728848
